Article PMC6813218 (Frontiers in Molecular Neuroscience, 2019)
These are yes or no findings as the source states them, for the method shown. Binding seen in cells or lysates may run through a third protein. Some binding calls cover weakened binding; strength is not graded here.

Chains of the proteins cited; added tags and fusions are not shown.
UniProt P34972: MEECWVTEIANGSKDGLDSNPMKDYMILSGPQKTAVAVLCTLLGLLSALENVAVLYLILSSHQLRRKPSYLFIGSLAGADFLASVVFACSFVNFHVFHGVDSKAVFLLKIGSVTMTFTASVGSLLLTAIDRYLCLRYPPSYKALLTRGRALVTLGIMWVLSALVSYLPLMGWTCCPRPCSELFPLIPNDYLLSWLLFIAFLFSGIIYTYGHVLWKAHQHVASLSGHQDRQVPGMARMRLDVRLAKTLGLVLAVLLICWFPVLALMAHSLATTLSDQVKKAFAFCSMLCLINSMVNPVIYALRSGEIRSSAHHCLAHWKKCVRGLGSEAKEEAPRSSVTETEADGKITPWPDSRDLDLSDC
UniProt P21554: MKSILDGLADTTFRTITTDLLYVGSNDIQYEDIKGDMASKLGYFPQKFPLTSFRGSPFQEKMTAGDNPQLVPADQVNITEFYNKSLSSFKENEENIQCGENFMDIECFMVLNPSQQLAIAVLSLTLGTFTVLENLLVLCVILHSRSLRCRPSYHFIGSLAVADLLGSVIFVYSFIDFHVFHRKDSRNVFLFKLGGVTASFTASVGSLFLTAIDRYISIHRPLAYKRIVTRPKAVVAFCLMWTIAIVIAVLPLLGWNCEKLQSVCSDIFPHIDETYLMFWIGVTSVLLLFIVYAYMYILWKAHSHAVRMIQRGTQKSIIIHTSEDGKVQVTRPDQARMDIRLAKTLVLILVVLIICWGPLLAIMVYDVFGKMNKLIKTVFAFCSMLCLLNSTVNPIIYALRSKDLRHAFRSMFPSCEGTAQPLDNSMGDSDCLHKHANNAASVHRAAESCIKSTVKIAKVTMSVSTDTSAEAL
UniProt P49407: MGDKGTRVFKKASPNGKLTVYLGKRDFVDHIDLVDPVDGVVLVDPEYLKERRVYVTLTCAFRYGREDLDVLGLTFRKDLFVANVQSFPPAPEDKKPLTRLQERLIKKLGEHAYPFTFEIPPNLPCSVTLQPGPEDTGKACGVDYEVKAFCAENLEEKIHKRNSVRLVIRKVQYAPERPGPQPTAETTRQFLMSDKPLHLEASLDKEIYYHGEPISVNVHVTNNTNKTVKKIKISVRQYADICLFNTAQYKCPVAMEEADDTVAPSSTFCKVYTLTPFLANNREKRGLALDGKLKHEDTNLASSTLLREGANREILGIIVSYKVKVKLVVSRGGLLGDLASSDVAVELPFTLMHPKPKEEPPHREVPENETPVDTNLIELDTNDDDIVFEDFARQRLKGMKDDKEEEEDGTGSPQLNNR
UniProt P32121: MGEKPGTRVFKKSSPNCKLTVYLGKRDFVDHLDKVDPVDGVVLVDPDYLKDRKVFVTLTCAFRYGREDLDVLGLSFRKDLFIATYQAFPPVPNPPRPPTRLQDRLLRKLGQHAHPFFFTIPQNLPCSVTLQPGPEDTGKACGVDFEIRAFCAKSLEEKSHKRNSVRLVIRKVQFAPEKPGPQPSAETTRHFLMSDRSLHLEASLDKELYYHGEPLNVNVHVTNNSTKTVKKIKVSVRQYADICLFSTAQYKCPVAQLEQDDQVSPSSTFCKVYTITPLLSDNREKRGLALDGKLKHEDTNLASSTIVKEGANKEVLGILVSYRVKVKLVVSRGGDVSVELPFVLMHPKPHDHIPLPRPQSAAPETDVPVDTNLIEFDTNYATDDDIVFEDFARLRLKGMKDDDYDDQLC

Experiments:
[1] = target: human type 2 cannabinoid receptor-green fluorescent protein2 C-terminal fusion protein (human) (UniProt P34972); test: FRET or BRET; BRET2 in HEK293A cells co-expressing receptor-GFP2 and βarrestin1-Rluc, 48 h after transfection, in BRET buffer, coelenterazine 400a 50 μM; cells treated 30 min with 1 nM-10 μM CP55940 ± 1 μM indomethacin, or 1 nM-10 μM indomethacin ± 500 nM CP55940; data as % of the maximal response to CP55940
[2] = target: human type 1 cannabinoid receptor-green fluorescent protein2 C-terminal fusion protein (human) (UniProt P21554); test: as above
[3] = target: human CB1R stably expressed in PathHunter (βarrestin2) CHO-K1 cells (human) (UniProt P21554); test: split reporter; DiscoveRx PathHunter βarrestin2 assay in hCB1R CHO-K1 cells, ligands (CP55940, AEA, indomethacin, 100 nM CP55940 or AEA + indomethacin) 90 min at 37°C, chemiluminescence; data as % of the maximal response to CP55940

Substance	binding [1]	binding [2]	binding [3]
human βarrestin1-Renilla luciferase II C-terminal fusion protein (from UniProt P49407 1-418)	binds	binds	–
βarrestin2 of the PathHunter CHO-K1 cells (from UniProt P32121 1-409)	–	–	binds
